Assay results reported in publication PMC12320502.
No constants are given. Whether binding was seen depends on the method and setting. In cells and extracts the contact can be indirect. These calls come from enrichment with a bait or labelling near it, and not all partners need be listed. Where a sequence is shown, tags or fusion partners need not be part of it.

The chains behind the UniProt entries cited, without tags or fusion partners. Residues count along the entry.
UniProt P13010: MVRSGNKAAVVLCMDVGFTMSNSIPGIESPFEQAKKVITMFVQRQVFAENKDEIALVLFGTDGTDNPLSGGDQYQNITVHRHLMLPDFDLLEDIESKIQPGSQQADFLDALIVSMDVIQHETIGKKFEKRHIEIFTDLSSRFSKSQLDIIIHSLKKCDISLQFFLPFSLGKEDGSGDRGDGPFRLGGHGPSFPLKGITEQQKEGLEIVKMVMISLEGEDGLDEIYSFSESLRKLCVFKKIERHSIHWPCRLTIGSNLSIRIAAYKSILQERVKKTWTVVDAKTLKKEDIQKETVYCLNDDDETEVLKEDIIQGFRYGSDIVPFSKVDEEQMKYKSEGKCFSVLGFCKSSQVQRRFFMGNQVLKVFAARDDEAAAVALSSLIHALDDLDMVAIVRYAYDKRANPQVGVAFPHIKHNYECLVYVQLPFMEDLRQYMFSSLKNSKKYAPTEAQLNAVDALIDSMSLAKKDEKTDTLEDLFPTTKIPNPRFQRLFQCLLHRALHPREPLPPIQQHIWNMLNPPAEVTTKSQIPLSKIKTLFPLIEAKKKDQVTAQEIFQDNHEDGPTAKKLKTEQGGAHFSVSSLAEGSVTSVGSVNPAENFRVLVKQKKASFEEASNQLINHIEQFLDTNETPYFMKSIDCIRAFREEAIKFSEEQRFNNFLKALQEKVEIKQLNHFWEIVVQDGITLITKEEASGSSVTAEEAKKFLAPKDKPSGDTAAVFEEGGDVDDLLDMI
UniProt P11021, residues 19-654: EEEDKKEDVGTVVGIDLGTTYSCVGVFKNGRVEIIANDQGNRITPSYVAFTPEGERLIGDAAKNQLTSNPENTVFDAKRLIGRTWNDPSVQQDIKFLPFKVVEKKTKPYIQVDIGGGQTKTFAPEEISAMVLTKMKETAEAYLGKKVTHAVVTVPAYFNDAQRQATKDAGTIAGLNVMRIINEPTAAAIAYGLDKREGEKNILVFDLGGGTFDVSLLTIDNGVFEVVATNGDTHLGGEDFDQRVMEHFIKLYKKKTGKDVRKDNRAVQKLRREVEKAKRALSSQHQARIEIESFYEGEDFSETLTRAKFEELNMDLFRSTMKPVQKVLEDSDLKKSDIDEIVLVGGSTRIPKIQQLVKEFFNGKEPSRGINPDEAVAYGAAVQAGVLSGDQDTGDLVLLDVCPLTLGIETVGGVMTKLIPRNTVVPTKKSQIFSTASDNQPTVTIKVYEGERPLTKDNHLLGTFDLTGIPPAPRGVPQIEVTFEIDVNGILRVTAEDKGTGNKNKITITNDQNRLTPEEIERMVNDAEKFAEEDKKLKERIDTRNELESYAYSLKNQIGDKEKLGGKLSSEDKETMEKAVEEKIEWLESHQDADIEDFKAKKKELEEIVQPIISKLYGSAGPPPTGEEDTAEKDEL

B1: DSC1 (protein, UniProt Q08554 135-894)
chain: RWAPIPASLMENSLGPFPQHVQQIQSDAAQNYTIFYSISGPGVDKEPFNLFYIEKDTGDIFCTRSIDREKYEQFALYGYATTADGYAPEYPLPLIIKIEDDNDNAPYFEHRVTIFTVPENCRSGTSVGKVTATDLDEPDTLHTRLKYKILQQIPDHPKHFSIHPDTGVITTTTPFLDREKCDTYQLIMEVRDMGGQPFGLFNTGTITISLEDENDNPPSFTETSYVTEVEENRIDVEILRMKVQDQDLPNTPHSKAVYKILQGNENGNFIISTDPNTNEGVLCVVKPLNYEVNRQVILQVGVINEAQFSKAASSQTPTMCTTTVTVKIIDSDEGPECHPPVKVIQSQDGFPAGQELLGYKALDPEISSGEGLRYQKLGDEDNWFEINQHTGDLRTLKVLDRESKFVKNNQYNISVVAVDAVGRSCTGTLVVHLDDYNDHAPQIDKEVTICQNNEDFAVLKPVDPDGPENGPPFQFFLDNSASKNWNIEEKDGKTAILRQRQNLDYNYYSVPIQIKDRHGLVATHMLTVRVCDCSTPSECRMKDKSTRDVRPNVILGRWAILAMVLGSVLLLCILFTCFCVTAKRTVKKCFPEDIAQQNLIVSNTEGPGEEVTEANIRLPMQTSNICDTSMSVGTVGGQGIKTQQSFEMVKGGYTLDSNKGGGHQTLESVKGVGQGDTGRYAYTDWQSFTQPRLGEKVYLCGQDEEHKHCEDYVCSYNYEGKGSLAGSVGCCSDRQEEEGLEFLDHLEPKFRTLAKTCIKK
B2: DNAJC10 (protein, UniProt Q8IXB1 33-793)
chain: DQDFYSLLGVSKTASSREIRQAFKKLALKLHPDKNPNNPNAHGDFLKINRAYEVLKDEDLRKKYDKYGEKGLEDNQGGQYESWNYYRYDFGIYDDDPEIITLERREFDAAVNSGELWFVNFYSPGCSHCHDLAPTWRDFAKEVDGLLRIGAVNCGDDRMLCRMKGVNSYPSLFIFRSGMAPVKYHGDRSKESLVSFAMQHVRSTVTELWTGNFVNSIQTAFAAGIGWLITFCSKGGDCLTSQTRLRLSGMLDGLVNVGWMDCATQDNLCKSLDITTSTTAYFPPGATLNNKEKNSILFLNSLDAKEIYLEVIHNLPDFELLSANTLEDRLAHHRWLLFFHFGKNENSNDPELKKLKTLLKNDHIQVGRFDCSSAPDICSNLYVFQPSLAVFKGQGTKEYEIHHGKKILYDILAFAKESVNSHVTTLGPQNFPANDKEPWLVDFFAPWCPPCRALLPELRRASNLLYGQLKFGTLDCTVHEGLCNMYNIQAYPTTVVFNQSNIHEYEGHHSAEQILEFIEDLMNPSVVSLTPTTFNELVTQRKHNEVWMVDFYSPWCHPCQVLMPEWKRMARTLTGLINVGSIDCQQYHSFCAQENVQRYPEIRFFPPKSNKAYHYHSYNGWNRDAYSLRIWGLGFLPQVSTDLTPQTFSEKVLQGKNHWVIDFYAPWCGPCQNFAPEFELLARMIKGKVKAGKVDCQAYAQTCQKAGIRAYPTVKFYFYERAKRNFQEEQINTRDAKAIAALISEKLETLRNQGKRNKDEL
B3: JUP (protein, UniProt P14923 1-745)
chain: MEVMNLMEQPIKVTEWQQTYTYDSGIHSGANTCVPSVSSKGIMEEDEACGRQYTLKKTTTYTQGVPPSQGDLEYQMSTTARAKRVREAMCPGVSGEDSSLLLATQVEGQATNLQRLAEPSQLLKSAIVHLINYQDDAELATRALPELTKLLNDEDPVVVTKAAMIVNQLSKKEASRRALMGSPQLVAAVVRTMQNTSDLDTARCTTSILHNLSHHREGLLAIFKSGGIPALVRMLSSPVESVLFYAITTLHNLLLYQEGAKMAVRLADGLQKMVPLLNKNNPKFLAITTDCLQLLAYGNQESKLIILANGGPQALVQIMRNYSYEKLLWTTSRVLKVLSVCPSNKPAIVEAGGMQALGKHLTSNSPRLVQNCLWTLRNLSDVATKQEGLESVLKILVNQLSVDDVNVLTCATGTLSNLTCNNSKNKTLVTQNSGVEALIHAILRAGDKDDITEPAVCALRHLTSRHPEAEMAQNSVRLNYGIPAIVKLLNQPNQWPLVKATIGLIRNLALCPANHAPLQEAAVIPRLVQLLVKAHQDAQRHVAAGTQQPYTDGVRMEEIVEGCTGALHILARDPMNRMEIFRLNTIPLFVQLLYSSVENIQRVAAGVLCELAQDKEAADAIDAEGASAPLMELLHSRNEGTATYAAAVLFRISEDKNPDYRKRVSVELTNSLFKHDPAAWEAAQSMIPINEPYGDDMDATYRPMYSSDVPLDPLEMHMDMDGDYPIDTYSDGLRPPYPTADHMLA

The molecules below were run against T1, SBSPON-3×Flag (Somatomedin B and Thrombospondin Type 1 Domain Containing), stably overexpressed by lentivirus (human) (UniProt Q8IVN8) (assay: affinity purification with mass spectrometry; immunoprecipitation in SBSPON-3×Flag overexpressing 5637 and T24 cells; NP-40 lysates, protein A/G agarose beads; bands from SDS-PAGE analysed by mass spectrometry).
T1 sequence (chain, N-glycosylation at Asn227): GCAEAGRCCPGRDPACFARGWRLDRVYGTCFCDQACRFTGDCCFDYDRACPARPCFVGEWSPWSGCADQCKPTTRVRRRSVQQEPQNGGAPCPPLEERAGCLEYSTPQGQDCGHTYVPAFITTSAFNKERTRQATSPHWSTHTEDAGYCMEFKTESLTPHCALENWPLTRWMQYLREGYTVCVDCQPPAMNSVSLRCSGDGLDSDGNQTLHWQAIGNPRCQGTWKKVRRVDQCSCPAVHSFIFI

binding, binds:
XRCC5 (from UniProt P13010 1-732)
HSPA5, endogenous in bladder cancer cells (from UniProt P11021 19-654)
B1
B2
B3
